Measurements from publication PMC9440563.
These are yes or no findings as the source states them, for the method shown. In cells and extracts the contact can be indirect. Some entries that bind do so weakly or less than the wild type.

Amino acid sequences for entries named in this document (tags omitted).
UniProt Q3URK3: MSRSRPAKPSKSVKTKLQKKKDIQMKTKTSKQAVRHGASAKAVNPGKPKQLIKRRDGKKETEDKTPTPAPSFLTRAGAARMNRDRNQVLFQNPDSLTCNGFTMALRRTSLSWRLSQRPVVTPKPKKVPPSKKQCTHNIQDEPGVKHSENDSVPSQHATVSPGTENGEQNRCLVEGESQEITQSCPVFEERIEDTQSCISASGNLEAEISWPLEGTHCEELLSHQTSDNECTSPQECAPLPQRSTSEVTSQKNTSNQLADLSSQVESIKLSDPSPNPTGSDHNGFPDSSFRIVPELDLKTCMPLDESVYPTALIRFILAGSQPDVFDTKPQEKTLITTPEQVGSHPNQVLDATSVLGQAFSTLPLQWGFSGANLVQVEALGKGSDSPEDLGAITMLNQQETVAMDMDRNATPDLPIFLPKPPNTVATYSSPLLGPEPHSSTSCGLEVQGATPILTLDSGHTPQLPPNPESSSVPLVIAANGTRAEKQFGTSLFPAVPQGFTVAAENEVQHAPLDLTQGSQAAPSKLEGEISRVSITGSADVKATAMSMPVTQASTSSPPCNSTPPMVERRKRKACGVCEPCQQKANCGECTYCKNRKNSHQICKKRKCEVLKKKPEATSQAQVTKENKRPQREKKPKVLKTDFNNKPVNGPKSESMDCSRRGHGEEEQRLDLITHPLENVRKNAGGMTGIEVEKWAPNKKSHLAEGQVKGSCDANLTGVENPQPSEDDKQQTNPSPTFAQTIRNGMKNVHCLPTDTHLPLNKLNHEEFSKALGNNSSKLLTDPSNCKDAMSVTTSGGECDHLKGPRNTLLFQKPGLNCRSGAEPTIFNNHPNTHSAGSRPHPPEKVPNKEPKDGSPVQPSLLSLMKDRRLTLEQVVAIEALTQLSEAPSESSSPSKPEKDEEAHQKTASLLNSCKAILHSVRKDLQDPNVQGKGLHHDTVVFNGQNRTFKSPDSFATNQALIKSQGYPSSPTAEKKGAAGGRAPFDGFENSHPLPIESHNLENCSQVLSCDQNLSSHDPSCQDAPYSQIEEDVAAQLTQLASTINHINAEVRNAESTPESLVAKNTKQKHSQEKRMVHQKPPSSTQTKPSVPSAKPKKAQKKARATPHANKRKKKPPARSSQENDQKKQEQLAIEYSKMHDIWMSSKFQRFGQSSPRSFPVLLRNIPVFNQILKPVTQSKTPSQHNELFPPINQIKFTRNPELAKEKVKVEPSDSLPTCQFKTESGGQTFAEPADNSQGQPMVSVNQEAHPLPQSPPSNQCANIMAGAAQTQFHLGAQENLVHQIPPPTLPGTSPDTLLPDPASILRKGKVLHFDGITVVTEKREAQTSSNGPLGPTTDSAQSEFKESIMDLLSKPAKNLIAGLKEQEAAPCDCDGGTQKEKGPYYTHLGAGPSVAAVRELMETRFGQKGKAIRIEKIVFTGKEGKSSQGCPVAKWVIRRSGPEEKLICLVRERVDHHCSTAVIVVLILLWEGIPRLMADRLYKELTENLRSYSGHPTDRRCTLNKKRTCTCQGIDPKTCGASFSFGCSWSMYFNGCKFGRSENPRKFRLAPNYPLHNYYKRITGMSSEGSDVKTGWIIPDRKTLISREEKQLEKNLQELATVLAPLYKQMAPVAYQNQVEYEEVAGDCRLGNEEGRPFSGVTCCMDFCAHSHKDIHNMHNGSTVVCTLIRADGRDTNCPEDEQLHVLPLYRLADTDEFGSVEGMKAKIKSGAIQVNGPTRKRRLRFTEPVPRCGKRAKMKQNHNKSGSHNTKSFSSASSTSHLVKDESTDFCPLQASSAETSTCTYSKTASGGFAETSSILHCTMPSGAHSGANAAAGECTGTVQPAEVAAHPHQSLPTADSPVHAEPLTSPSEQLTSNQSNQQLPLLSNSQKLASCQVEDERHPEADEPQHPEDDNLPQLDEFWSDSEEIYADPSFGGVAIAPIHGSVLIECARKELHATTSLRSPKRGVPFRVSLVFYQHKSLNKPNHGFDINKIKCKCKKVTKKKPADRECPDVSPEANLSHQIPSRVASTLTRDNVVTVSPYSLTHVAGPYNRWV

B1: CCCTC-binding factor (CTCF) (protein, UniProt Q61164 1-736)
chain: MEGEAVEAIVEESETFIKGKERKTYQRRREGGQEEDACHLPQNQTDGGEVVQDVNSSVQMVMMEQLDPTLLQMKTEVMEGTVAPEAEAAVDDTQIITLQVVNMEEQPINIGELQLVQVPVPVTVPVATTSVEELQGAYENEVSKEGLAESEPMICHTLPLPEGFQVVKVGANGEVETLEQGELPPQEDSSWQKDPDYQPPAKKTKKTKKSKLRYTEEGKDVDVSVYDFEEEQQEGLLSEVNAEKVVGNMKPPKPTKIKKKGVKKTFQCELCSYTCPRRSNLDRHMKSHTDERPHKCHLCGRAFRTVTLLRNHLNTHTGTRPHKCPDCDMAFVTSGELVRHRRYKHTHEKPFKCSMCDYASVEVSKLKRHIRSHTGERPFQCSLCSYASRDTYKLKRHMRTHSGEKPYECYICHARFTQSGTMKMHILQKHTENVAKFHCPHCDTVIARKSDLGVHLRKQHSYIEQGKKCRYCDAVFHERYALIQHQKSHKNEKRFKCDQCDYACRQERHMIMHKRTHTGEKPYACSHCDKTFRQKQLLDMHFKRYHDPNFVPAAFVCSKCGKTFTRRNTMARHADNCAGPDGVEGENGGETKKSKRGRKRKMRSKKEDSSDSEENAEPDLDDNEEEEEPAVEIEPEPEPQPQPPPPPQPVAPAPPPAKKRRGRPPGRTNQPKQNQPTAIIQVEDQNTGAIENIIVEVKKEPDAEPAEGEEEEAQAATTDAPNGDLTPEMILSMMDR

What was measured:
[1] = target: T1, CCCTC-binding factor (CTCF) (mouse (endogenous in iHepSCs)) (UniProt Q61164); test: co-IP; nuclear extract of iHepSCs; immunoprecipitation with anti-TET1 antibody or anti-CTCF antibody, endogenous proteins
T1 sequence: B1 chain

[2] = target: Tet methylcytosine dioxygenase 1 (TET1) (mouse (endogenous in iHepSCs)) (UniProt Q3URK3); test: as above

| Molecule | binding [1] | binding [2] |
| --- | --- | --- |
| Tet methylcytosine dioxygenase 1 (TET1) (from UniProt Q3URK3 1-2039) | binds | – |
| B1 | – | binds |
